These are yes or no findings as the source states them, for the method shown. In cells and extracts the contact can be indirect. Where a sequence is shown, tags or fusion partners need not be part of it.

The target in experiment [1] is T1, myc-Myo1b (UniProt Q05096).
T1 sequence: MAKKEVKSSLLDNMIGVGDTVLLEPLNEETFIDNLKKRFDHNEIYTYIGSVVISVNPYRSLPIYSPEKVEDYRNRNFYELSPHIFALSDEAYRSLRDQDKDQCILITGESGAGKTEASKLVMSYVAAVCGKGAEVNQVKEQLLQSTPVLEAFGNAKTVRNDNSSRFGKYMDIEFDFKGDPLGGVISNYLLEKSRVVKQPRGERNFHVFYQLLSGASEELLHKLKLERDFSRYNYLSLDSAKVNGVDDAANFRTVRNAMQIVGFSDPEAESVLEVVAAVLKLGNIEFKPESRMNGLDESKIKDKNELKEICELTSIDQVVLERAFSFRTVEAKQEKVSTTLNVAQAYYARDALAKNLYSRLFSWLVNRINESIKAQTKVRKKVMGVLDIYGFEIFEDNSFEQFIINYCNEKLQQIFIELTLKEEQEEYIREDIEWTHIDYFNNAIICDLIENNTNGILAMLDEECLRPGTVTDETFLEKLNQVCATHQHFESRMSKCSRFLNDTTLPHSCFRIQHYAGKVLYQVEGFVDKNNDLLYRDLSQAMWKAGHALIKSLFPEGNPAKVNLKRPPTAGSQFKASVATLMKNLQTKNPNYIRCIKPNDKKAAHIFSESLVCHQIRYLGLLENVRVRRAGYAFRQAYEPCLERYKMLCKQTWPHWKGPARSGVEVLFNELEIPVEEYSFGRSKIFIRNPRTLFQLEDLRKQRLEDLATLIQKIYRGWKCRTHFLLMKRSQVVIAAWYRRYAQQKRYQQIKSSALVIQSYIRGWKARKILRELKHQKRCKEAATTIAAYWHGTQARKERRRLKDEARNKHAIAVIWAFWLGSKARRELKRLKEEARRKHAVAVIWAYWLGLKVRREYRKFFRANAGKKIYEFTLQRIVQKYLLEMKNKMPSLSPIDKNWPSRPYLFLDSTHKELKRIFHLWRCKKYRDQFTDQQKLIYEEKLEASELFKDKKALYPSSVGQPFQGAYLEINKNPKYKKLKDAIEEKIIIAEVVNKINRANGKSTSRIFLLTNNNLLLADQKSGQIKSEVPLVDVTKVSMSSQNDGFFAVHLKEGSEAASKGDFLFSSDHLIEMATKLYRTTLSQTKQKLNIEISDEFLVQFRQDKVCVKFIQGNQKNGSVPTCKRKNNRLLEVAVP
Kind of experiment: co-IP; attempted co-immunoprecipitation of myc-Myo1b and SIT1-V5 with anti-myc or anti-V5 antibodies; cells and extraction conditions not told; told only in the discussion.

Experiment [2] concerns the target T2, mouse V5-tagged SIT1 (SIT1-V5) (mouse) (UniProt Q8VDB9).
T2 sequence: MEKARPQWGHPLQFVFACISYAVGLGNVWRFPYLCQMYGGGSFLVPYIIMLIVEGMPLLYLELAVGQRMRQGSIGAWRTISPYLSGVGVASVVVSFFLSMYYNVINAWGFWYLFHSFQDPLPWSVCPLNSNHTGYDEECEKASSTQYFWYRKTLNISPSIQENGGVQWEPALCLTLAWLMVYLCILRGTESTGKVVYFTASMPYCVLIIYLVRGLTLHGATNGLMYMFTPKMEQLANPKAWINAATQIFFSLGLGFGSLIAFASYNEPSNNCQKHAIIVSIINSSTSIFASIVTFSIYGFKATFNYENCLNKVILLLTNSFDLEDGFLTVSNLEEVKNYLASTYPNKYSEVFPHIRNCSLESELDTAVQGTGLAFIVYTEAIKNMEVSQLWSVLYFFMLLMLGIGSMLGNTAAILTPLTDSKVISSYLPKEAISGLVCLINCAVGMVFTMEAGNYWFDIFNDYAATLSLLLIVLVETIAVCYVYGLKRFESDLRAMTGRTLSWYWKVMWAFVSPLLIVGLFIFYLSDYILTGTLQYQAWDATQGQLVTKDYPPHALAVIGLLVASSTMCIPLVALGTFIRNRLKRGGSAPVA
The description is as above.

B1: mouse V5-tagged SIT1 (SIT1-V5) (protein, UniProt Q8VDB9 1-592)
chain: T2 sequence
Turning to B1, the binding entry in experiment [1] was “no binding”.

B2: myc-Myo1b (protein, UniProt Q05096 1-1136)
chain: T1 sequence
Take B2: the binding entry in experiment [2] was “no binding”.

For the origin of these results see PMC4567078.
